Data from patent US8715920B2, “Composition for preserving platelets during photosensitization” (Biovec Transfusion, LLC, priority 2010, dated 2014).
Some entries repeat one wording, which the source may state once for all of them. Positions of bridges follow the written chain, without caps; N, C: chain ends. Non-standard residues stand in square brackets, D forms with d. Residues, ends and D or L forms follow the SMILES beside them. hArg = N=C(N)NCCCC[C@H](N)C(=O)O; Mpa = O=C(O)CCS

Test: Removal of preservative agents from platelet solutions by diafiltration, HPLC detection
Set-up: species or system human
Details: after diafiltration, 4 volume discontinuous plus 10 volume constant volume exchange

SMILES	removal from platelet preservation solution
CC1CNc2c(cccc2S(=O)(=O)N[C@@H](CCCNC(=N)N)C(=O)N2CC[C@@H](C)C[C@@H]2C(=O)O)C1 (stereo partly drawn) [Argatroban]	below the level of detection
N=C(N)NCCCC[C@@H]1NC(=O)CCSSC[C@@H](C(N)=O)NC(=O)[C@@H]2CCCN2C(=O)[C@H](Cc2c[nH]c3ccccc23)NC(=O)[C@H](CC(=O)O)NC(=O)CNC1=O [Eptifibatide] ([Mpa][hArg]GDWPC-NH2; disulfide 1-7)	below the level of detection
CCCCS(=O)(=O)N[C@@H](Cc1ccc(OCCCCC2CCNCC2)cc1)C(=O)O [Tirofiban]	below the level of detection
